# Reference: article PMC8384837
# Some of the results follow. At the low end of the ranking the order means little.
# Target: T1, PUM1 PUF domain R2-VFQ R3-THE R4-TFR N899V + Y900F + C935T + R936H + Q939E + N971T + H972F + Q975R (UniProt Q14671)
# T1 sequence: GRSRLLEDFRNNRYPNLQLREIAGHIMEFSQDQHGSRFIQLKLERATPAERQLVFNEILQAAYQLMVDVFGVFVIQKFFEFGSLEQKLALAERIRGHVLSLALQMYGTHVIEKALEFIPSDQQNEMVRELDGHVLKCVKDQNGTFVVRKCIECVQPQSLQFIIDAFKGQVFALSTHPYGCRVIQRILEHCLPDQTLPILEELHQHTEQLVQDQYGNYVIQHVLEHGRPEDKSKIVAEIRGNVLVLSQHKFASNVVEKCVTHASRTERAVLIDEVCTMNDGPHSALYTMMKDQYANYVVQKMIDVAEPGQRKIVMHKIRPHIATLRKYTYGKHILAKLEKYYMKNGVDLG
# Details: yeast three-hybrid, YBZ-1, SC-Leu-His + 0.5 mM 3-AT, 4 days
row,Sequence,binding signal (log2 enrichment (interaction score))
1,GGCUAGAACUAGUGGAUCCCCCGGCGCCCGGCGGCUCGAGCCCGGGUAAGUUUACGAGGUCUGCAUGCCGCCGGGCGCCAUGCCUGCAGGUCGACUCUAGAAAACAUG,-6.78
2,GGCUAGAACUAGUGGAUCCCCCGGCGCCCGGCGGCUCGAGCCCGGGUAAGUUUAAGAAGUCUGCAUGCCGCCGGGCGCCAUGCCUGCAGGUCGACUCUAGAAAACAUG,-5.45
3,GGCUAGAACUAGUGGAUCCCCCGGCGCCCGGCGGCUCGAGCCCGGGUAAGUUGACGUCGUCUGCAUGCCGCCGGGCGCCAUGCCUGCAGGUCGACUCUAGAAAACAUG,-5.49
4,GGCUAGAACUAGUGGAUCCCCCGGCGCCCGGCGGCUCGAGCCCGGGUAAGUCGAAGUAGUCUGCAUGCCGCCGGGCGCCAUGCCUGCAGGUCGACUCUAGAAAACAUG,-5.56
5,GGCUAGAACUAGUGGAUCCCCCGGCGCCCGGCGGCUCGAGCCCGGGUAAGUGGAAGAUGUCUGCAUGCCGCCGGGCGCCAUGCCUGCAGGUCGACUCUAGAAAACAUG,-5.53
6,GGCUAGAACUAGUGGAUCCCCCGGCGCCCGGCGGCUCGAGCCCGGGUAAGUUUAAAUAGUCUGCAUGCCGCCGGGCGCCAUGCCUGCAGGUCGACUCUAGAAAACAUG,-5.66
7,GGCUAGAACUAGUGGAUCCCCCGGCGCCCGGCGGCUCGAGCCCGGGUAAGUGUAAAUGGUCUGCAUGCCGCCGGGCGCCAUGCCUGCAGGUCGACUCUAGAAAACAUG,-5.13
8,GGCUAGAACUAGUGGAUCCCCCGGCGCCCGGCGGCUCGAGCCCGGGUAAGUUGAAAACGUCUGCAUGCCGCCGGGCGCCAUGCCUGCAGGUCGACUCUAGAAAACAUG,-5.47
9,GGCUAGAACUAGUGGAUCCCCCGGCGCCCGGCGGCUCGAGCCCGGGUAAGUUGGAUCAGUCUGCAUGCCGCCGGGCGCCAUGCCUGCAGGUCGACUCUAGAAAACAUG,-5.63
10,GGCUAGAACUAGUGGAUCCCCCGGCGCCCGGCGGCUCGAGCCCGGGUAAGUGGACGACGUCUGCAUGCCGCCGGGCGCCAUGCCUGCAGGUCGACUCUAGAAAACAUG,-3.65
11,GGCUAGAACUAGUGGAUCCCCCGGCGCCCGGCGGCUCGAGCCCGGGUAAGUGUAAAUAGUCUGCAUGCCGCCGGGCGCCAUGCCUGCAGGUCGACUCUAGAAAACAUG,-5.27
12,GGCUAGAACUAGUGGAUCCCCCGGCGCCCGGCGGCUCGAGCCCGGGUAAGUCAGUAGAGUCUGCAUGCCGCCGGGCGCCAUGCCUGCAGGUCGACUCUAGAAAACAUG,-5.19
13,GGCUAGAACUAGUGGAUCCCCCGGCGCCCGGCGGCUCGAGCCCGGGUAAGUGGACGUAGUCUGCAUGCCGCCGGGCGCCAUGCCUGCAGGUCGACUCUAGAAAACAUG,-3.93
14,GGCUAGAACUAGUGGAUCCCCCGGCGCCCGGCGGCUCGAGCCCGGGUAAGUUGGAAUAGUCUGCAUGCCGCCGGGCGCCAUGCCUGCAGGUCGACUCUAGAAAACAUG,-4.28
15,GGCUAGAACUAGUGGAUCCCCCGGCGCCCGGCGGCUCGAGCCCGGGUAAGUUGACGUAGUCUGCAUGCCGCCGGGCGCCAUGCCUGCAGGUCGACUCUAGAAAACAUG,-5.3
16,GGCUAGAACUAGUGGAUCCCCCGGCGCCCGGCGGCUCGAGCCCGGGUAAGUUGACGACGUCUGCAUGCCGCCGGGCGCCAUGCCUGCAGGUCGACUCUAGAAAACAUG,-5.31
17,GGCUAGAACUAGUGGAUCCCCCGGCGCCCGGCGGCUCGAGCCCGGGUAAGUGGAGGUAGUCUGCAUGCCGCCGGGCGCCAUGCCUGCAGGUCGACUCUAGAAAACAUG,-5.71
18,GGCUAGAACUAGUGGAUCCCCCGGCGCCCGGCGGCUCGAGCCCGGGUAAGUUGACGAGGUCUGCAUGCCGCCGGGCGCCAUGCCUGCAGGUCGACUCUAGAAAACAUG,-4.92
19,GGCUAGAACUAGUGGAUCCCCCGGCGCCCGGCGGCUCGAGCCCGGGUAAGUGUACGACGUCUGCAUGCCGCCGGGCGCCAUGCCUGCAGGUCGACUCUAGAAAACAUG,-5.36
20,GGCUAGAACUAGUGGAUCCCCCGGCGCCCGGCGGCUCGAGCCCGGGUAAGUGGAAAUAGUCUGCAUGCCGCCGGGCGCCAUGCCUGCAGGUCGACUCUAGAAAACAUG,-5.58
21,GGCUAGAACUAGUGGAUCCCCCGGCGCCCGGCGGCUCGAGCCCGGGUAAGUGAAAAUAGUCUGCAUGCCGCCGGGCGCCAUGCCUGCAGGUCGACUCUAGAAAACAUG,-5.19
22,GGCUAGAACUAGUGGAUCCCCCGGCGCCCGGCGGCUCGAGCCCGGGUAAGUGGACAUCGUCUGCAUGCCGCCGGGCGCCAUGCCUGCAGGUCGACUCUAGAAAACAUG,-6.09
23,GGCUAGAACUAGUGGAUCCCCCGGCGCCCGGCGGCUCGAGCCCGGGUAAGUUGAAGUAGUCUGCAUGCCGCCGGGCGCCAUGCCUGCAGGUCGACUCUAGAAAACAUG,-5.42
24,GGCUAGAACUAGUGGAUCCCCCGGCGCCCGGCGGCUCGAGCCCGGGUAAGUGUAAAUCGUCUGCAUGCCGCCGGGCGCCAUGCCUGCAGGUCGACUCUAGAAAACAUG,-6.02

# In another format: results already given
row	Sequence	binding signal (log2 enrichment (interaction score))
14	GGCUAGAACUAGUGGAUCCCCCGGCGCCCGGCGGCUCGAGCCCGGGUAAGUUGGAAUAGUCUGCAUGCCGCCGGGCGCCAUGCCUGCAGGUCGACUCUAGAAAACAUG	-4.28
15	GGCUAGAACUAGUGGAUCCCCCGGCGCCCGGCGGCUCGAGCCCGGGUAAGUUGACGUAGUCUGCAUGCCGCCGGGCGCCAUGCCUGCAGGUCGACUCUAGAAAACAUG	-5.3
